Test results from doi:10.1101/2025.06.10.658793.
Read-outs that look alike come from different tables or passages of the source. Results are given in words; binding and its absence hold for the method and conditions named. For part of these data: Binding seen in cells or lysates may run through a third protein. Some entries that bind do so weakly or less than the wild type. For part of these data: Sequences can lack the tags named with a protein.

The chains behind the UniProt entries cited, without tags or fusion partners.
UniProt P08393: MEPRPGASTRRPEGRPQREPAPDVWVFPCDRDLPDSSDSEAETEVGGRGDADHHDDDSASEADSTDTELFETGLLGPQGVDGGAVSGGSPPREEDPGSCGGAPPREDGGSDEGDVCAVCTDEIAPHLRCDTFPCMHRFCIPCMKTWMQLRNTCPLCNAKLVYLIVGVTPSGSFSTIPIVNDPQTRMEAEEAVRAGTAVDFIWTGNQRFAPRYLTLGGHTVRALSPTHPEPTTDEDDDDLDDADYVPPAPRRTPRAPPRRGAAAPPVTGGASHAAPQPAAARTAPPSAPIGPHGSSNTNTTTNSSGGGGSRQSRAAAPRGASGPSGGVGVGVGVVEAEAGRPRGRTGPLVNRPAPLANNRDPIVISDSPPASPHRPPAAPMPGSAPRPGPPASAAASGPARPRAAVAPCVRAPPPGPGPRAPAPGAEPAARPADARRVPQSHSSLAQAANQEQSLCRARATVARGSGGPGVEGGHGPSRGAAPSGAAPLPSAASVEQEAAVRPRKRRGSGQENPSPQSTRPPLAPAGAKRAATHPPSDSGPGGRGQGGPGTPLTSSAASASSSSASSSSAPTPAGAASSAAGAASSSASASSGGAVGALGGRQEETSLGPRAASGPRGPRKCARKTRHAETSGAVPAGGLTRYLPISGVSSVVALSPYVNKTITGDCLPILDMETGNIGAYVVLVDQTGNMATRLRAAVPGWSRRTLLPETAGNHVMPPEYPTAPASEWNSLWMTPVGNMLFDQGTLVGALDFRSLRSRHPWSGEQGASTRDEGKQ

Tests used:
Myc-tagged WT RAP80 = biological target: T1, Myc-tagged WT RAP80 (UniProt Q96RL1); test: co-IP
T1 sequence: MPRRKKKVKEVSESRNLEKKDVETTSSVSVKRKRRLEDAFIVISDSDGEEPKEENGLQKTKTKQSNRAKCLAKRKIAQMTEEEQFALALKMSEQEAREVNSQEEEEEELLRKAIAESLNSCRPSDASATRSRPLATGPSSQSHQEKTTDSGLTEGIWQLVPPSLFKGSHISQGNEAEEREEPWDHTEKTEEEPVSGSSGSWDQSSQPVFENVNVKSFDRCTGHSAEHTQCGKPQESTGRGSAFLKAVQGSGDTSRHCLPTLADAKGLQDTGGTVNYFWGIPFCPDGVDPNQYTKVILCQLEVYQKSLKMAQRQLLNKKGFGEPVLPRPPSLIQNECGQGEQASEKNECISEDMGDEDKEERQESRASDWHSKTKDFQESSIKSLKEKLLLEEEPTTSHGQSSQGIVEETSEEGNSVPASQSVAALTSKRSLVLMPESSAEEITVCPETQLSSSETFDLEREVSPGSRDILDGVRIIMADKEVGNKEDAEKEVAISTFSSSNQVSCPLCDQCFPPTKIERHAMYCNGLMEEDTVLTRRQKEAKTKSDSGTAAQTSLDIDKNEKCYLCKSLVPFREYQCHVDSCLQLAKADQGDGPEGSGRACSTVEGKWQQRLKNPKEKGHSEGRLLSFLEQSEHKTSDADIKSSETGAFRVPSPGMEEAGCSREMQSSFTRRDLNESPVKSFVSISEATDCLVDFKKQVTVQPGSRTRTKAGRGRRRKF

Flag-tagged RAP80 [1] = biological target: T2, Flag-tagged RAP80 (UniProt Q96RL1); test: pull-down
T2 sequence: T1 sequence

[2] = biological target: RAP80 3KR mutant (precipitated with anti-Flag) (UniProt Q96RL1); test: pull-down
ubiquitinated RAP80 = biological target: T3, ubiquitinated RAP80 (UniProt Q96RL1); test: pull-down
T3 sequence (chain, ubiquitinated (sites and chain type not stated for this sample)): T1 sequence

[3] = biological target: ubiquitinated RAP80 3KR mutant (UniProt Q96RL1); test: pull-down
Flag-tagged RAP80 [4] = biological target: T2, Flag-tagged RAP80; test: pull-down; remark: listed apart in the source

Measured: binding

Flag-tagged ICP0 (from UniProt P08393 1-775)
binds: Myc-tagged WT RAP80

purified ubiquitinated ICP0 (from UniProt P08393 1-775)
not listed: Myc-tagged WT RAP80
binds: all other assays above
